This passage reports binding results from paper PMC12070812.

By UniProt entry, the sequences of proteins in these tests, tags left out. Where a name states a change or a piece, a line headed by the entry shows the natural chain unless it says otherwise.
UniProt Q9VUH8: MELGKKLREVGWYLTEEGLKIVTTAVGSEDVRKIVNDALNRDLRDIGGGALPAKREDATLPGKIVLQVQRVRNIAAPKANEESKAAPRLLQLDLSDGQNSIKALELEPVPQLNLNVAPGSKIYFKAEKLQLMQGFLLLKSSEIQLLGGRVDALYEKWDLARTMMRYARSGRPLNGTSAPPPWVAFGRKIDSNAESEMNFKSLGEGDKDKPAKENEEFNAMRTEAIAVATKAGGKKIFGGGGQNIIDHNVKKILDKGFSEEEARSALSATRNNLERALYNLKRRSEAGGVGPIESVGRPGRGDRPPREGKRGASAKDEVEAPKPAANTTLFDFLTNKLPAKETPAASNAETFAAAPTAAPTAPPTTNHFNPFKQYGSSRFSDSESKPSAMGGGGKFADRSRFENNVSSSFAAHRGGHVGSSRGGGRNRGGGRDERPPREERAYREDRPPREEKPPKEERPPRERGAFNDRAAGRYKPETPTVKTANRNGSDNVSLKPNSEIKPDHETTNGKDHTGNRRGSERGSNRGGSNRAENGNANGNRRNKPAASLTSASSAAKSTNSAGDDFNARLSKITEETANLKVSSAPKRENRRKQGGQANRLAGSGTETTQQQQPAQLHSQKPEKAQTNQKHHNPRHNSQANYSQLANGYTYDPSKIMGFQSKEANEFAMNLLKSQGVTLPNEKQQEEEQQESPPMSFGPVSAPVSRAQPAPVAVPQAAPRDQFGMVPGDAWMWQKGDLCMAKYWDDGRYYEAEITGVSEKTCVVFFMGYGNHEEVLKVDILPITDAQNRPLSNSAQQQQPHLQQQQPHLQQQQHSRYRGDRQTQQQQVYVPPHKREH

These are yes or no findings as the source states them, for the method shown. Binding seen in cells or lysates may run through a third protein. A result given as binding can be weak or reduced; the word gives no strength.

The test has as its target TDRD3 (Drosophila) (Drosophila (endogenous in fly ovaries and OSS cells)) (UniProt Q9VUH8). As to the kind of experiment: co-IP; reciprocal TDRD3 and Piwi IP from OSS cell lysates (Ripa buffer); IP buffer 20mM Hepes pH 7.9, 200mM NaCl, 0.1% NP40, 4 hours at 4 C; Western blot of the eluates. On the technique in general: Immunoblotting shows a protein as a band on a membrane.

B1: Piwi (protein, UniProt Q9VKM1 1-843)
chain: MADDQGRGRRRPLNEDDSSTSRGSGDGPRVKVFRGSSSGDPRADPRIEASRERRALEEAPRREGGPTERKPWGDQYDYLNTRPAELVSKKGTDGVPVMLQTNFFRLKTKPEWRIVHYHVEFEPSIENPRVRMGVLSNHANLLGSGYLFDGLQLFTTRKFEQEITVLSGKSKLDIEYKISIKFVGFISCAEPRFLQVLNLILRRSMKGLNLELVGRNLFDPRAKIEIREFKMELWPGYETSIRQHEKDILLGTEITHKVMRTETIYDIMRRCSHNPARHQDEVRVNVLDLIVLTDYNNRTYRINDVDFGQTPKSTFSCKGRDISFVEYYLTKYNIRIRDHNQPLLISKNRDKALKTNASELVVLIPELCRVTGLNAEMRSNFQLMRAMSSYTRMNPKQRTDRLRAFNHRLQNTPESVKVLRDWNMELDKNVTEVQGRIIGQQNIVFHNGKVPAGENADWQRHFRDQRMLTTPSDGLDRWAVIAPQRNSHELRTLLDSLYRAASGMGLRIRSPQEFIIYDDRTGTYVRAMDDCVRSDPKLILCLVPNDNAERYSSIKKRGYVDRAVPTQVVTLKTTKNRSLMSIATKIAIQLNCKLGYTPWMIELPLSGLMTIGFDIAKSTRDRKRAYGALIASMDLQQNSTYFSTVTECSAFDVLANTLWPMIAKALRQYQHEHRKLPSRIVFYRDGVSSGSLKQLFEFEVKDIIEKLKTEYARVQLSPPQLAYIVVTRSMNTRFFLNGQNPPPGTIVDDVITLPERYDFYLVSQQVRQGTVSPTSYNVLYSSMGLSPEKMQKLTYKMCHLYYNWSGTTRVPAVCQYAKKLATLVGTNLHSIPQNALEKKFYYL
Turning to B1, the binding entry was “binds”.

B2: SpnE (protein, UniProt Q9VF26 1-1434)
chain: MDQEVMDFFDFSKELKRVAAAPQGYISSDPRLMATKFKSSEVPNRELIGTDYVSKIVAKEKCLLNGTLLNEQPQGKRIRTLDDLDTDDEGEETEIRRDDEYYKKFRFNLNRDKNLSIYAKREEILAAINAHPVVIIKGETGCGKTTQVPQYILDEAYKSGKYCNIVVTQPRRIAAISIANRVCQEREWQQNTVCSFQVGLHRPNSLEDTRLLYCTTGVLLNNLINNKTLTHYTHIVLDEVHERDQNMDFLLIVVRRLLATNSRHVKIILMSATIDAKELSDYFTTTNSIPPVITTNHRRKHSIEKFYRDQLGSIIWNEEDVGHQQVPEINKHGYRAAVKIIVIIDNMERKAAIQSRQSYDEALRYGAVLIFLPGIYEIDTMAENLTCMLENDPNIKVSIVRCFSLMTPENQRDVFNPPPPGFRKIILTTNIAESSITVPDVSYVIDFCLAKVKVTDTASSFSSLRLTWASKANCRQRAGRVGRLRSGRVYRMVNKHFYQREMPEFGIPEMLRLPLQNSVLKAKVLNMGSPVEILALALSPPNLSDIHNTILLLKEVGALYLTVDGIYDPLDGDLTYWGTIMSRLPLDTRQSRLIILGYIFNMLEEAIIIAAGLSTPGLFAHEGGRSQLGDSFWMHYIFSDGSGSDLVAIWRVYLTYLNIVENGHDQESAIRWAKRFHVSLRSLKEIHLLVQELRVRCTHLGLIPFPVNPNQMMDDREKAIMLKVIIAGAFYPNYFTRSKESCADTDRNIYQTISGHDPCRTVYFTNFKPAYMGELYTRRIKELFQEVRIPPENMDVTFQEGSQKVFVTFKQDDWIEGSSKYVPVSGRVQSEVYKAVMMRQNRVERPIHIMNPSAFMSYVQQRGIGDVIEGRWIPPTKPLNVELLALPSVFDKTISGSITCIVNCGKFFFQPQSFEECIRNMSEIFNAPQQLRNYVTNASAIAKGMMVLAKRDSYFQRATVIRPENQSNRQPMFYVRFIDYGNCTLLPMQLMRLMPRELTEQYGDLPPRVFECRLAMVQPSSVVSGNNRWSTAANDMLKTVAQCGLIDIEVYSLFNNVAAVLIHMRDGIINDKLVELMLCRRSDEDYMSRKDHDFRLRRQESARNLSTAQRQQINEEYLRSCQLPQDHDLPPPPLEKCKTVVMLKGPNSPLECTMRSITRVGLSKRVNIDHLSVNALLLDADPQDHHDHLIVAHEIAESRNGQTLTARGTTLMPNVQGFGALMVMLFSPTMQLKCNKEGTSYVSVLGGLGCDPDTNEPYFAEHDVLINLDVNILEDDVILINQIRYYIDSVFFNFKEENNPAVSVNERVSIYTQLRSLINRLLCKDRRYIERNMSNADFEWETNPELPLPNEPFGKRAIFPMHSLTELQEEDTGRLVQLRENCSMLHKWRNFEGTLPHMTCKLCNQLLESVPQLRLHLLTILHRDREKQIDYCNQ
Take B2: the binding result is reported as “binds”.
